Source: patent US20240173439A1, “FLUORINE-CONTAINING COMPOUND AND CONTRAST MEDIUM” (TDK CORPORATION, priority 2021, published 2024)
Some results were stated once for a whole list of compounds, not compound by compound. For at least one compound, name, drawing or mass did not settle the structure. Some ranges recur; such a range may be that of the whole group of compounds.

Assay: Measurement of 19F spin-lattice relaxation time (T1) by inversion recovery, 500 MHz NMR
Assay type: physicochemical
Conditions: 50 mM in CDCl3, 36° C.
Procedure: (Measurement of ^19F Spin-Lattice Relaxation Time (T1))
A compound was dissolved in a deuterated chloroform solution at a concentration of 50 mM, and the longitudinal relaxation time (T1) of ^19F nucleus was measured through an inversion recovery method using a 500 MHz NMR device under the conditions shown below.
Measurement Conditions • NMR device: JNM-ECA500 (manufactured by JEOL) • Measurement temperature: 36° C. • Pulse sequence: double_pulse • relaxation_delay: 10[s] • tau_interval: 4, 3, 2, 1, 0.8, 0.6, 0.4, 0.2, 0.1[s], 80, 60, 40, 20, 10, 8, 6, 4, 2[ms] • Number of times of integration: 16 times

CC1(C)CC(OCCC(F)(F)F)CC(C)(C)N1[O] [Compound 13]
T1 (19F spin-lattice relaxation time) (listed as Example 3): shorter ^19F spin-lattice relaxation time (T1) than the compounds of Comparative Examples 1 and 2

CC1(C)CC(Oc2cccc(C(F)(F)F)c2)CC(C)(C)N1[O] [Compound 19]
T1 (19F spin-lattice relaxation time) (listed as Example 9): shorter ^19F spin-lattice relaxation time (T1) than the compounds of Comparative Examples 1 and 2

CCC1(CC)CC(OCCCCOC(C(F)(F)F)(C(F)(F)F)C(F)(F)F)CC(CC)(CC)N1[O] [Compound 22, 4-(4-((1,1,1,3,3,3-hexafluoro-2-(trifluoromethyl)propane-2-yl)oxy)butoxy)-2,2,6,6-tetraet hylpiperidine-1-oxyl]
T1 (19F spin-lattice relaxation time) (listed as Example 12): shorter ^19F spin-lattice relaxation time (T1) than the compounds of Comparative Examples 1 and 2

CC1(C)CC(OCCCCOC(C(F)(F)F)(C(F)(F)F)C(F)(F)F)CC(C)(C)N1[O] [Compound 11, 4-(4-((1,1,1,3,3,3-hexafluoro-2-(trifluoromethyl)propane-2-yl)oxy)butoxy)-2,2,6,6-tetra methylpiperidine-1-oxyl]
T1 (19F spin-lattice relaxation time) (listed as Example 1): shorter ^19F spin-lattice relaxation time (T1) than the compounds of Comparative Examples 1 and 2

CC1(C)CC(Oc2cc(C(F)(F)F)cc(C(F)(F)F)c2)CC(C)(C)N1[O] [Compound 20]
T1 (19F spin-lattice relaxation time) (listed as Example 10): shorter ^19F spin-lattice relaxation time (T1) than the compounds of Comparative Examples 1 and 2

CC1(C)CC(OC(C(F)(F)F)C(F)(F)F)CC(C)(C)N1[O] [Compound 16]
T1 (19F spin-lattice relaxation time) (listed as Example 6): shorter ^19F spin-lattice relaxation time (T1) than the compounds of Comparative Examples 1 and 2

CC1(C)CC(OCCCCCCCCOC(C(F)(F)F)(C(F)(F)F)C(F)(F)F)CC(C)(C)N1[O] [Compound 27, 4-((8-((1,1,1,3,3,3-hexafluoro-2-(trifluoromethyl)propane-2-yl)oxy)octyl)oxy)-2,2,6,6-tet ramethylpiperidine-1-oxyl]
T1 (19F spin-lattice relaxation time) (listed as Example 17): shorter ^19F spin-lattice relaxation time (T1) than the compounds of Comparative Examples 1 and 2

CC1(C)CC(OCCCC(F)(F)F)CC(C)(C)N1[O] [Compound 14]
T1 (19F spin-lattice relaxation time) (listed as Example 4): shorter ^19F spin-lattice relaxation time (T1) than the compounds of Comparative Examples 1 and 2

CC1(C)CC(OC(C(F)(F)F)(C(F)(F)F)C(F)(F)F)CC(C)(C)N1[O] [Compound 15, 4-((1,1,1,3,3,3-hexafluoro-2-(trifluoromethyl)propane-2-yl)oxy)-2,2,6,6-tetramethylpiper idine-1-oxyl]
T1 (19F spin-lattice relaxation time) (listed as Example 5): shorter ^19F spin-lattice relaxation time (T1) than the compounds of Comparative Examples 1 and 2

CC1(C)CC(Oc2ccccc2C(F)(F)F)CC(C)(C)N1[O] [Compound 18]
T1 (19F spin-lattice relaxation time) (listed as Example 8): shorter ^19F spin-lattice relaxation time (T1) than the compounds of Comparative Examples 1 and 2

CC1(C)CC(OCCOC(C(F)(F)F)(C(F)(F)F)C(F)(F)F)CC(C)(C)N1[O] [Compound 12]
T1 (19F spin-lattice relaxation time) (listed as Example 2): shorter ^19F spin-lattice relaxation time (T1) than the compounds of Comparative Examples 1 and 2

CCC1(CC)CC(OCCOC(C(F)(F)F)(C(F)(F)F)C(F)(F)F)CC(CC)(CC)N1[O] [Compound 23]
T1 (19F spin-lattice relaxation time) (listed as Example 13): shorter ^19F spin-lattice relaxation time (T1) than the compounds of Comparative Examples 1 and 2

CC1(C)CC(OCCCCCCCCCCCCCCCCOC(C(F)(F)F)(C(F)(F)F)C(F)(F)F)CC(C)(C)N1[O] [Compound 29]
T1 (19F spin-lattice relaxation time) (listed as Example 19): shorter ^19F spin-lattice relaxation time (T1) than the compounds of Comparative Examples 1 and 2

CC1(C)CC(OC(C(F)(F)F)(C(F)(F)F)C(F)(F)F)CC(C)(C)N1[O] [Compound 24, 4-((1,1,1,3,3,3-hexafluoro-2-(trifluoromethyl)propane-2-yl)oxy)-2,2,6,6-tetramethylpiperidine-1-oxyl]
T1 (19F spin-lattice relaxation time) (listed as Example 14): shorter ^19F spin-lattice relaxation time (T1) than the compounds of Comparative Examples 1 and 2

CC1(C)CC(OCCCCCCCCCCCCOC(C(F)(F)F)(C(F)(F)F)C(F)(F)F)CC(C)(C)N1[O] [Compound 28]
T1 (19F spin-lattice relaxation time) (listed as Example 18): shorter ^19F spin-lattice relaxation time (T1) than the compounds of Comparative Examples 1 and 2

CCC1(CC)CC(OCCCCOC(C(F)(F)F)(C(F)(F)F)C(F)(F)F)CC(C)(C)N1[O] (stereo not shown) [Compound 25, 4-(4-((1,1,1,3,3,3-hexafluoro-2-(trifluoromethyl)propane-2-yl)oxy)butoxy)-2,2-diethyl-6,6-dimethylpiperidine-1-oxyl]
T1 (19F spin-lattice relaxation time) (listed as Example 15): shorter ^19F spin-lattice relaxation time (T1) than the compounds of Comparative Examples 1 and 2

CC1(C)CC(OCC(F)(F)F)CC(C)(C)N1[O] [Compound 17]
T1 (19F spin-lattice relaxation time) (listed as Example 7): shorter ^19F spin-lattice relaxation time (T1) than the compounds of Comparative Examples 1 and 2

CC1(C)CC(Oc2ccc(C(F)(F)F)cc2)CC(C)(C)N1[O] [Compound 21]
T1 (19F spin-lattice relaxation time) (listed as Example 11): shorter ^19F spin-lattice relaxation time (T1) than the compounds of Comparative Examples 1 and 2

CC1(C)CC(OCCCCOC(C(F)(F)F)C(F)(F)F)CC(C)(C)N1[O] [Compound 26, 4-(4-((1,1,1,3,3,3-hexafluoropropane-2-yl)oxy)butoxy)-2,2,6,6-tetramethylpiperidine-1-o xyl]
T1 (19F spin-lattice relaxation time) (listed as Example 16): shorter ^19F spin-lattice relaxation time (T1) than the compounds of Comparative Examples 1 and 2
